# This is one part of the list. Further columns of the screen follow, without active or inactive calls. Most of these compounds were active or inconclusive in the main read-out, so they are no random draw. Potencies come from curve fits of mixed quality, noted in brackets.
# Test: qHTS Assay for Lipid Storage Modulators in Drosophila S3 Cells;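 for cell number change: cells counted by Cell Tracker Red CMTPX staining in the red channel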
# Settings: BODIPY lipid droplet fluorescence, 18-24 h; for cell number change: measured here: cell count max response, cells fed with added oleic acid
# Outline: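 Laser-scanning cytometry quantifies lipid droplet accumulation (500–530 nm total intensity; droplet/cell object ratio) in oleic acid-fed (400 uM added) Drosophila S3 cells treated with a concentration series. 20 uM Triacsin C defined 100% inhibition.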
# [1] = measured here: lipid fluorescence (Fed channel) AC50, cells fed with added oleic acid
# [2] = measured here: cell number channel AC50, cells fed with added oleic acid
SMILES,cell number change,AC50 [1],AC50 [2]
CCN(CC)S(=O)(=O)c1ccc2oc(C(=O)NCCN3CCOCC3)c(C)c2c1,10%,"1.03 µM [rising, single point]",
O=C(Nc1cccc(NC(=O)c2ccco2)c1)c1ccc2c(c1)OCO2,-6.07%,"0.58 µM [falling, single point]",
CC1CC(C)CN(C(=O)c2cc3c(=O)n4ccccc4nc3s2)C1 (stereo not given),-31.7%,,"14.6 µM [falling, partial curve, poor fit]"
Cc1nn(C)c(C)c1Nc1ccc(N2C(=O)C3CC=CCC3C2=O)cc1[N+](=O)[O-] (stereo not given),7.55%,,
COc1ccc(S(=O)(=O)NC(CC(C)C)C(=O)NC(C)c2cccs2)cc1 (stereo not given),14.6%,"16.4 µM [falling, single point]",
CC(C)OC1(c2ccccc2)OC(=O)c2ccccc21 (stereo not given),4.62%,"11.6 µM [rising, single point]",
Cc1ccc(S(=O)(=O)NCCC(=O)NCCCSc2ccccc2)cc1,,"9.2 µM [falling, partial curve]",
Cc1ccc(-c2nc(=S)c3c(n2Cc2ccco2)CC(C)(C)OC3)cc1,-16.7%,"2.06 µM [falling, partial curve]",
Cc1cc(/C=C2\NC(=O)NC2=O)c(C)n1-c1cccnc1,28.1%,"5.8 µM [rising, single point]","0.517 µM [rising, full curve, poor fit]"
CSc1nsc(SCC(=O)Nc2nc3ccccc3s2)n1,-43%,,"11.6 µM [falling, partial curve, poor fit]"
CC(=O)c1ccc(N2CCN(C(=S)Nc3cccc(F)c3)CC2)cc1,-10.7%,,
CC(OC(=O)c1cccnc1Cl)C(=O)Nc1ccc2c(c1)OCCO2 (stereo not given),,"0.0146 µM [rising, full curve, poor fit]",
CCn1c(C)c(C)c2cc(C(=O)N3CCc4ccccc4C3)ccc21,32.7%,,"5.8 µM [rising, partial curve]"
Cc1ccc(CNC(=O)c2c(-c3ccccc3Cl)noc2C)cc1,7.32%,"29.1 µM [falling, single point]",
CCOc1ccc(N(CC(=O)NC(C)CC)S(C)(=O)=O)cc1 (stereo not given),-56.1%,"29.1 µM [falling, single point]","20.6 µM [falling, single point]"
CCOc1ccc(C)cc1S(=O)(=O)n1ccnc1,,"1.84 µM [rising, partial curve]","0.517 µM [rising, full curve]"
O=C(NCc1ccc(F)cc1)C1CCCN(C(=O)NCc2ccccc2)C1 (stereo not given),23.9%,"29.1 µM [rising, single point]",
CCn1c(Cc2ccc(OC)cc2)nnc1SCC(=O)Nc1cccc(C(=O)OC)c1,-7.98%,"1.84 µM [falling, partial curve]","1.64 µM [falling, partial curve]"
CCC(C)NC(=O)CCS(=O)(=O)c1ccc2c(c1)n(C)c(=O)c(=O)n2C (stereo not given),-34.5%,"20.6 µM [falling, single point]","20.6 µM [falling, single point]"

# An excerpt of these results, as tab-separated lines.
SMILES	cell number change	AC50 [1]	AC50 [2]
O=C(Nc1cccc(NC(=O)c2ccco2)c1)c1ccc2c(c1)OCO2	-6.07%	0.58 µM [falling, single point]	
COc1ccc(S(=O)(=O)NC(CC(C)C)C(=O)NC(C)c2cccs2)cc1 (stereo not given)	14.6%	16.4 µM [falling, single point]	
CC(C)OC1(c2ccccc2)OC(=O)c2ccccc21 (stereo not given)	4.62%	11.6 µM [rising, single point]	
Cc1ccc(S(=O)(=O)NCCC(=O)NCCCSc2ccccc2)cc1		9.2 µM [falling, partial curve]	
CSc1nsc(SCC(=O)Nc2nc3ccccc3s2)n1	-43%		11.6 µM [falling, partial curve, poor fit]
CC(=O)c1ccc(N2CCN(C(=S)Nc3cccc(F)c3)CC2)cc1	-10.7%		
CC(OC(=O)c1cccnc1Cl)C(=O)Nc1ccc2c(c1)OCCO2 (stereo not given)		0.0146 µM [rising, full curve, poor fit]	
CCn1c(C)c(C)c2cc(C(=O)N3CCc4ccccc4C3)ccc21	32.7%		5.8 µM [rising, partial curve]
Cc1ccc(CNC(=O)c2c(-c3ccccc3Cl)noc2C)cc1	7.32%	29.1 µM [falling, single point]	
CCOc1ccc(N(CC(=O)NC(C)CC)S(C)(=O)=O)cc1 (stereo not given)	-56.1%	29.1 µM [falling, single point]	20.6 µM [falling, single point]
CCOc1ccc(C)cc1S(=O)(=O)n1ccnc1		1.84 µM [rising, partial curve]	0.517 µM [rising, full curve]
CCn1c(Cc2ccc(OC)cc2)nnc1SCC(=O)Nc1cccc(C(=O)OC)c1	-7.98%	1.84 µM [falling, partial curve]	1.64 µM [falling, partial curve]

# Following part

SMILES,cell number change,AC50 [1],AC50 [2]
O=C(Nc1cccc(Cl)c1)c1nc[nH]c1C(=O)N1CCN(c2ccccc2)CC1,-38.1%,,"25.9 µM [falling, single point]"
O=C(/C(=C(\[O-])c1ccccc1)[n+]1ccc2ccccc2c1)c1ccc(Cl)cc1,23.2%,"2.59 µM [rising, full curve]","0.00517 µM [rising, full curve, poor fit]"
C/C(=N\NC(=O)c1ccc(Cl)cc1)c1cccnc1,6.49%,"20.6 µM [rising, single point]",
CN1C(=O)N2CN(C3CCCCC3)CN3C(=O)N(C)C1C23 (stereo not given),-16.9%,"5.8 µM [falling, full curve]",
C=CCOc1cccc(C(=O)Nc2ncn[nH]2)c1,-10.3%,,
CC1CCN(C2=C(NS(=O)(=O)c3ccccc3)C(=O)c3ccccc3C2=O)CC1,-59%,"1.84 µM [falling, full curve]","3.66 µM [falling, full curve]"
Cc1ccc2cc(CN(Cc3ccco3)S(=O)(=O)c3c(C)ccc4nsnc34)c(=O)[nH]c2c1,18.4%,,"0.366 µM [rising, full curve, poor fit]"
Nc1nonc1-n1nnc(C(=O)c2ccccc2)c1-c1ccccc1,90.7%,"20.6 µM [rising, single point]",
O=S(=O)(c1ccc(OCc2nc3ccccc3s2)c(Cl)c1)N1CCOCC1,,"6.51 µM [rising, single point]",
CCc1ccc(/C=N\NC(=O)c2ccc(Br)o2)s1,9.3%,"0.651 µM [rising, partial curve]",
Cc1ccc(C(=O)C2=C(O)C(=O)N(Cc3cccnc3)C2c2cccc([N+](=O)[O-])c2)o1 (stereo not given),25.6%,"23.1 µM [rising, single point]","1.46 µM [rising, full curve, poor fit]"
Clc1ccc(-n2nnnc2SCc2c(-c3ccccc3)nc3sccn23)cc1,-61.5%,"32.6 µM [falling, single point]","3.66 µM [falling, partial curve]"
COC(=O)c1ccc(CC(=O)c2c(C)cc(O)cc2O)o1,4.19%,"0.82 µM [rising, full curve]",
CN(CCCC1CCCC1)C(=O)CC1C(=O)NCCN1Cc1ccc(F)cc1 (stereo not given),16.4%,"0.0651 µM [falling, full curve, poor fit]",
O=C(CN1CCN(c2ccc(F)cc2)CC1)Nc1ccc(S(=O)(=O)N2CCOCC2)cc1,,"6.51 µM [falling, single point]",
Cc1ccc(NC(=O)CN2C(=O)S/C(=C\c3ccc(-c4cccc(C(=O)O)c4C)o3)C2=O)cc1,3.13%,,
Cc1ccccc1CSCCNS(C)(=O)=O,-72.9%,"0.092 µM [rising, full curve, poor fit]","18.4 µM [falling, single point]"
Cc1cccc2sc(NC(=O)C3c4ccccc4Oc4ccccc43)nc12,-15.2%,"3.66 µM [falling, partial curve]",
COc1ccccc1NC(=O)CSc1sc2c(O)cc(=O)[nH]c2c1C#N,8.7%,,

SMILES,cell number change,AC50 [1],AC50 [2]
O=C(N/N=C/c1sc(=O)n(-c2ccccc2)c1Cl)c1ccccc1,37.6%,,"32.6 µM [rising, single point]"
O=S(CCc1ccncc1)Cc1ccccc1 (stereo not given),14.9%,"0.651 µM [falling, full curve]",
CN(C)S(=O)(=O)c1ccc2nc(NC(=O)c3cccs3)sc2c1,43.5%,"0.92 µM [rising, full curve]","11.6 µM [rising, partial curve]"
COc1cc(/C=C(\C#N)C(=O)Nc2ccccc2F)ccc1OCCN1CCOCC1,-19.1%,,
CCOC(=O)c1c(S(=O)(=O)NCC(=O)NCc2ccccc2)c(C)n(C)c1C,,,"0.00461 µM [rising, full curve, poor fit]"
O=C1Nc2ccc(Cl)cc2[C@@](C#CC2CC2)(C(F)(F)F)O1,-73%,"14.6 µM [falling, partial curve]","13 µM [falling, partial curve]"
O=C(Nc1cccnc1)C12CC3CC(CC(C3)C1)C2,-10.6%,"0.164 µM [falling, full curve, poor fit]",
CN(C)c1ccc(/C=C(/NC(=O)c2ccccc2)C(=O)N2CCCC2)cc1,-26.2%,"32.6 µM [rising, single point]","0.731 µM [falling, full curve, poor fit]"
C=CCSc1nc2c(c(=O)[nH]c(=O)n2C)n1C/C=C(/C)Cl,-19.4%,"32.6 µM [falling, single point]",
O=C(O)c1ccc(NC2=C/C(=N/S(=O)(=O)c3ccccc3)c3ccccc3C2=O)cc1,-63%,"23.1 µM [falling, partial curve, poor fit]","0.164 µM [falling, full curve, poor fit]"
O=C(N/N=C\c1cccc(Cl)c1)c1ccc(Cn2cc(Br)c([N+](=O)[O-])n2)o1,-15.3%,"25.9 µM [falling, partial curve, poor fit]",
Cc1ccc(CC(=O)NC2CCCc3ccccc32)cc1C (stereo not given),6.76%,"0.58 µM [rising, single point]",
CCC(CC)N1CCN(S(=O)(=O)c2ccc(OC)cc2)CC1,13.2%,,
C/C(=N\NC(=O)CSCc1ccc([N+](=O)[O-])cc1)c1ccccc1O,20.8%,"14.6 µM [rising, partial curve, poor fit]",
COc1cc(SC)ccc1C(=O)Nc1ccc2c(c1)OCO2,164%,"0.731 µM [rising, full curve]","20.6 µM [rising, partial curve]"
COc1ccc(CC(=O)NCc2ccccc2Cl)cc1S(=O)(=O)N1CCOCC1,-3.57%,,
CNC(=O)CN(c1ccc(F)cc1)S(=O)(=O)c1cc(C)ccc1OC,,"0.58 µM [falling, single point]","0.58 µM [falling, single point]"
COc1ccc(Br)cc1CNc1ccccc1,3.44%,"16.4 µM [rising, partial curve]",
CCOC(=O)c1c(C)[nH]c(C(=O)OCc2ccc([N+](=O)[O-])cc2)c1C,-18.2%,"16.4 µM [falling, single point]",
